# According to the supplement of paper PMC8728848:
# Some of the results follow.
# B1: Epa21 (Candida glabrata) (protein)
# chain: MGSSHHHHHHSSGLVPRGSHMASTPNIESHPQGCSPVDTSGIKPGLKMDLYRFPITPPGTGCWSWDWLTVTPDFPRSGYWKWPKIAEVDGVVGPLHLDSGHPTCDPLTSVLPHGFNYLQSITTTNFTMVLHGYFVPKQSGKYTFEFKADDALLLNLGAGNAFSCCDYNNSQYNQGEYLAYAIWSKNNQTATLYLEKGIYYPIRVFYHNRCCGAYMDVVYYFNDSPIPNRDFSGLLFSIPDSDSCDANI
# How the values were obtained:
# Assay in all cases: glycan array binding signal (z-score within array); higher = stronger binding
# Conditions in all cases: glycan notation: IUPAC condensed, linker removed
# [1] = biological target: Fuc(a1-2)[GalNAc(a1-3)]Gal(b1-3)GlcNAc(b1-3)GalNAc
# Method in brief: (§1)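 Arrays were curated from the Consortium for Functional Glycomics database, 3228 in total, and kept only where the protein sequence was available. Binding is expressed as a within-array Z-score. This score was averaged across arrays of the same protein sequence at different concentrations or buffers and across linkers, and negative values can be read as non-binding.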
# [2] = biological target: Fuc(a1-2)[GalNAc(a1-3)]Gal(b1-3)GlcNAc(b1-6)GalNAc
# Method in brief: as §1
# [3] = biological target: Fuc(a1-2)[GalNAc(a1-3)]Gal(b1-4)Glc
# Method in brief: as §1
# [4] = biological target: Fuc(a1-2)[GalNAc(a1-3)]Gal(b1-4)GlcNAc
# Method in brief: as §1
# [5] = biological target: Fuc(a1-2)[GalNAc(a1-3)]Gal(b1-4)GlcNAc(b1-2)Man
# Method in brief: as §1
# [6] = biological target: Fuc(a1-2)[GalNAc(a1-3)]Gal(b1-4)GlcNAc(b1-2)Man(a1-3)[Fuc(a1-2)[GalNAc(a1-3)]Gal(b1-4)GlcNAc(b1-2)Man(a1-6)]Man(b1-4)GlcNAc(b1-4)GlcNAc
# Method in brief: as §1
# [7] = biological target: Fuc(a1-2)[GalNAc(a1-3)]Gal(b1-4)GlcNAc(b1-2)Man(a1-3)[Fuc(a1-2)[GalNAc(a1-3)]Gal(b1-4)GlcNAc(b1-2)Man(a1-6)]Man(b1-4)GlcNAc(b1-4)[Fuc(a1-6)]GlcNAc
# Method in brief: as §1
# [8] = biological target: Fuc(a1-2)[GalNAc(a1-3)]Gal(b1-4)GlcNAc(b1-3)Gal(b1-4)GlcNAc
# Method in brief: as §1
# [9] = biological target: Fuc(a1-2)[GalNAc(a1-3)]Gal(b1-4)GlcNAc(b1-3)Gal(b1-4)GlcNAc(b1-3)Gal(b1-4)GlcNAc
# Method in brief: as §1
# [10] = biological target: Fuc(a1-2)[GalNAc(a1-3)]Gal(b1-4)GlcNAc(b1-3)GalNAc
# Method in brief: as §1
# [11] = biological target: Fuc(a1-2)[GalNAc(a1-3)]Gal(b1-4)GlcNAc(b1-3)[Fuc(a1-2)[GalNAc(a1-3)]Gal(b1-4)GlcNAc(b1-6)]GalNAc
# Method in brief: as §1
# [12] = biological target: Fuc(a1-2)[GalNAc(a1-3)]Gal(b1-4)GlcNAc(b1-6)GalNAc
# Method in brief: as §1
# [13] = biological target: Fuc(a1-2)[GalNAc(a1-3)]Gal(b1-4)[Fuc(a1-3)]GlcNAc
# Method in brief: as §1
# [14] = biological target: Fuc(a1-2)[GalNAc(a1-3)]Gal(b1-4)[Fuc(a1-3)]GlcNAc(b1-3)GalNAc
# Method in brief: as §1
# [15] = biological target: Fuc(a1-2)[GalNAc(a1-4)]Gal(b1-4)GlcNAc
# Method in brief: as §1
# [16] = biological target: Fuc(a1-2)[GalNAc(b1-3)]Gal
# Method in brief: as §1
# [17] = biological target: Fuc(a1-3)GlcNAc
# Method in brief: as §1
# [18] = biological target: Fuc(a1-3)[Gal(b1-4)]Glc6S
# Method in brief: as §1
# [19] = biological target: Fuc(a1-3)[Gal(b1-4)]GlcNAc
# Method in brief: as §1
# [20] = biological target: Fuc(a1-3)[Gal(b1-4)]GlcNAc(b1-2)Man
# Method in brief: as §1
# [21] = biological target: Fuc(a1-3)[Gal(b1-4)]GlcNAc(b1-2)Man(a1-3)[Fuc(a1-3)[Gal(b1-4)]GlcNAc(b1-2)Man(a1-6)]Man(b1-4)GlcNAc(b1-4)GlcNAc
# Method in brief: as §1
# [22] = biological target: Fuc(a1-3)[Gal(b1-4)]GlcNAc(b1-2)Man(a1-3)[Fuc(a1-3)[Gal(b1-4)]GlcNAc(b1-2)Man(a1-6)]Man(b1-4)GlcNAc(b1-4)[Fuc(a1-6)]GlcNAc
# Method in brief: as §1
# [23] = biological target: Fuc(a1-3)[Gal(b1-4)]GlcNAc(b1-3)Gal(b1-3)[Fuc(a1-4)]GlcNAc
# Method in brief: as §1
# [24] = biological target: Fuc(a1-3)[Gal(b1-4)]GlcNAc(b1-3)Gal(b1-4)[Fuc(a1-3)]GlcNAc
# Method in brief: as §1
# [25] = biological target: Fuc(a1-3)[Gal(b1-4)]GlcNAc(b1-3)Gal(b1-4)[Fuc(a1-3)]GlcNAc(b1-3)Gal(b1-4)[Fuc(a1-3)]GlcNAc
# Method in brief: as §1
# [26] = biological target: Fuc(a1-3)[Gal(b1-4)]GlcNAc(b1-3)GalNAc
# Method in brief: as §1
# [27] = biological target: Fuc(a1-3)[Gal(b1-4)]GlcNAc(b1-6)GalNAc
# Method in brief: as §1
# [28] = biological target: Fuc(a1-3)[Gal(b1-4)]GlcNAc(b1-6)[Gal(b1-3)GlcNAc(b1-3)]Gal(b1-4)Glc
# Method in brief: as §1
# [29] = biological target: Fuc(a1-3)[Gal(b1-4)]GlcNAc6S
# Method in brief: as §1
# [30] = biological target: Fuc(a1-3)[Gal3S(b1-4)]Glc
# Method in brief: as §1
# [31] = biological target: Fuc(a1-3)[Gal3S(b1-4)]GlcNAc
# Method in brief: as §1
# [32] = biological target: Fuc(a1-3)[Gal3S(b1-4)]GlcNAc6S
# Method in brief: as §1
# [33] = biological target: Fuc(a1-3)[GalNAc(b1-4)]GlcNAc
# Method in brief: as §1
# [34] = biological target: Fuc(a1-3)[GalNAc(b1-4)]GlcNAc6S
# Method in brief: as §1
# [35] = biological target: Fuc(a1-4)GlcNAc
# Method in brief: as §1
# [36] = biological target: Fuc(b1-3)GlcNAc
# Method in brief: as §1
# [37] = biological target: Gal(a1-2)Gal
# Method in brief: as §1
binder,measurement,setting,value
B1,glycan array binding signal (z-score),[1],0.937
same,glycan array binding signal (z-score),[2],-0.784
same,glycan array binding signal (z-score),[3],-0.731
same,glycan array binding signal (z-score),[4],-0.553
same,glycan array binding signal (z-score),[5],-0.471
same,glycan array binding signal (z-score),[6],-0.552
same,glycan array binding signal (z-score),[7],0.127
same,glycan array binding signal (z-score),[8],-0.274
same,glycan array binding signal (z-score),[9],0.436
same,glycan array binding signal (z-score),[10],-0.539
same,glycan array binding signal (z-score),[11],-0.445
same,glycan array binding signal (z-score),[12],-0.634
same,glycan array binding signal (z-score),[13],-0.093
same,glycan array binding signal (z-score),[14],0.819
same,glycan array binding signal (z-score),[15],-0.533
same,glycan array binding signal (z-score),[16],-0.716
same,glycan array binding signal (z-score),[17],-0.655
same,glycan array binding signal (z-score),[18],1.77
same,glycan array binding signal (z-score),[19],-0.96
same,glycan array binding signal (z-score),[20],-0.558
same,glycan array binding signal (z-score),[21],-0.28
same,glycan array binding signal (z-score),[22],0.852
same,glycan array binding signal (z-score),[23],-0.531
same,glycan array binding signal (z-score),[24],0.064
same,glycan array binding signal (z-score),[25],-0.594
same,glycan array binding signal (z-score),[26],0.13
same,glycan array binding signal (z-score),[27],-0.129
same,glycan array binding signal (z-score),[28],0.728
same,glycan array binding signal (z-score),[29],0.366
same,glycan array binding signal (z-score),[30],-0.444
same,glycan array binding signal (z-score),[31],0.384
same,glycan array binding signal (z-score),[32],0.671
same,glycan array binding signal (z-score),[33],0.311
same,glycan array binding signal (z-score),[34],0.119
same,glycan array binding signal (z-score),[35],-0.291
same,glycan array binding signal (z-score),[36],-1.01
same,glycan array binding signal (z-score),[37],-0.581

# Exported with tabs: part of the list above
binder	measurement	setting	value
B1	glycan array binding signal (z-score)	[13]	-0.093
same	glycan array binding signal (z-score)	[14]	0.819
